From paper PMC2739297 come the findings set out here.

Results are given in words; binding and its absence hold for the method and conditions named. In cells and extracts the contact can be indirect. These calls come from enrichment with a bait or labelling near it, and not all partners need be listed.

The assay addresses T1, DPS-Like protein (DPSL) from Sulfolobus solfataricus, purified recombinant dodecameric DPSL (Sulfolobus solfataricus) (UniProt P95855).
T1 sequence: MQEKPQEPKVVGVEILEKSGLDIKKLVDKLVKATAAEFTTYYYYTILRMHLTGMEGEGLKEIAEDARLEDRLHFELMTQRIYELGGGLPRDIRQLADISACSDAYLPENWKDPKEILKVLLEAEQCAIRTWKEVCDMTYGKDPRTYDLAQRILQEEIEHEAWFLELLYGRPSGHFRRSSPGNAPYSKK
In words: affinity purification with mass spectrometry; recombinant DPSL coupled to AminoLink Plus agarose beads, mixed with S. solfataricus total cell lysate with protease inhibitors for 2 hrs at 4°C; washed three times with 50 mM MES pH 7.2, 100 mM NaCl, 0.3% NP-40, 2 mM EDTA; eluted with glycine pH 2.5/2.6 or digested with trypsin on the beads; LC-MS/MS; mock agarose beads as control; three replicates; only the target purified.

B1: Peroxiredoxin, bacterioferritin comigratory protein homolog (bcp-2) of Sulfolobus solfataricus (enzyme, UniProt P95895 1-215)
chain: MSEERIPLIGERFPEMEVITTQGRIKLPDDYKGRWFVLFSHPGDFTPVCTTEFYSFAKKYEEFKKLNTELIGLSVDSNISHIEWIMWIEKNLKVEIPFPIIADPMGNVAKRLGMIHAQSSTATVRAVFVVDDKGVVRLILYYPMEIGRNIDEILRAIRALQLVDKAGVVTPANWPNNELIGDKVINPAPRTIKDAKMRLGQPFDWWFTYKEVKTT
With B1, the binding entry is given as “binds”.

B2: Superoxide dismutase [Fe] (sod) of Sulfolobus solfataricus (enzyme, UniProt P80857 1-211)
chain: MTLQIQFKKYELPPLPYKIDALEPYISKDIIDVHYNGHHKGYVNGANSLLERLEKVVKGDLQTGQYDIQGIIRGLTFNINGHKLHALYWENMAPSGKGGGKPGGALADLINKQYGSFDRFKQVFTETANSLPGTGWAVLYYDTESGNLQIMTFENHFQNHIAEIPIILILDEFEHAYYLQYKNKRADYVNAWWNVVNWDAAEKKLQKYLTK
Take B2: the binding entry is recorded as “binds”.
